“And” between values parts separate entries of the source, which are not always exact repeats. Equal values may be shown once. This is one part of the list. Single wells; the ratio to wells without odorant was worked out here, and repeats agree poorly.
Columns and labels:
Assay in all cases: odorant receptor activation (CRE luciferase / Renilla) (fold of no-odor wells); higher = more activation
Details in all cases: 100 µM
[1] = test system: OR2L8 clone 1515
[2] = test system: OR2M2 R220G/C235R clone 1494
[3] = test system: OR2M3 clone 1054
[4] = test system: OR2M4 clone 1053
[5] = test system: OR2M5 clone 1167
[6] = test system: OR2M7 F35L/V78A/C178F clone 1378
[7] = test system: OR2M7 F35L/V78A/C178F/D191N clone 1401
[8] = test system: OR2M7 clone 1377
[9] = test system: OR2S2 clone 1462
[10] = test system: OR2T1 P132L clone 1474
[11] = test system: OR2T10 clone 1047
[12] = test system: OR2T11 C119R/Q309R clone 1050
[13] = test system: OR2T11 C119R/Q309R clone 1051
[14] = test system: OR2T2 clone 1561
[15] = test system: OR2T29 clone 1545
[16] = test system: OR2T3 clone 1397
[17] = test system: OR2T34 clone 1049
[18] = test system: OR2T35 V31I clone 1562
[19] = test system: OR2T4 clone 1347
[20] = test system: OR2T5 clone 1033

Row | SMILES | odorant receptor activation [1] | odorant receptor activation [2] | odorant receptor activation [3] | odorant receptor activation [4] | odorant receptor activation [5] | odorant receptor activation [6] | odorant receptor activation [7] | odorant receptor activation [8] | odorant receptor activation [9] | odorant receptor activation [10] | odorant receptor activation [11] | odorant receptor activation [12] | odorant receptor activation [13] | odorant receptor activation [14] | odorant receptor activation [15] | odorant receptor activation [16] | odorant receptor activation [17] | odorant receptor activation [18] | odorant receptor activation [19] | odorant receptor activation [20]
1 | O=C1CCCCCCCCCCCC(=O)OCCO1 [ethylene brassylate] | 1.2 | 1.25 | 1.26 | 1.54 | 1.96 | 2.35 | 1.49 | 1.71 | 1.65 | 1.54 | 2.31 | 1.52 | 1.35 | 1.19 | 1.68 | 1.44 | 1.5 | 1.16 | 1.71 | 1.53
2 | CCCCCCCOC(C)=O [heptyl acetate] | 0.713 and 1.1 | 1.08 and 1.16 | 0.769 | 0.77 | 1.04 | 1.17 | 0.838 | 1.21 | 0.939 and 1.59 | 1.02 and 1.51 | 0.82 | 0.696 | 1.2 | 0.894 | 1.03 and 1.7 | 1.09 | 1.76 | 0.841 | 0.834 and 1 | 0.798
3 | C=CC(C)(O)CCC=C(C)C (stereo not given) [linalool] | 1.35 | 0.768 | 1.3 | 1.62 | 1.02 | 0.96 | 1.06 | 0.872 | 0.85 | 1.18 | 1.19 | 0.997 | 1.48 | 1.02 | 1.21 | 0.925 | 0.966 | 0.192 | 0.687 | 1.18
4 | CCCCCCCCOC(C)=O [octyl acetate] | 0.973 | 1.14 | 1.3 | 1.43 | 0.932 | 1.02 | 0.985 | 1.04 | 0.761 | 0.861 | 1.09 | 0.72 | 1.09 | 0.696 | 0.864 | 0.962 | 0.9 | 0.907 | 0.885 | 0.974
5 | CCCCCCCC=CC=O [2-decenal] | 1.73 | 1.13 | 2.02 | 3.28 | 0.784 | 1.99 | 0.906 | 1.16 | 1.32 | 1.34 | 5.26 | 6.28 | 6.84 | 0.852 | 1.03 | 0.95 | 6.48 | 0.73 | 1.45 | 12.7
6 | C=C(C)C1CC=CCC1 (stereo not given) [r-limonene] | 1.2 and 1.11 and 0.787 | 0.893 and 0.978 and 0.943 | 1.23 and 2.12 | 1.34 and 1.82 | 1.23 and 0.468 | 1.39 and 0.731 | 1.12 and 1.13 | 1.17 and 0.905 | 0.836 and 0.976 and 1.01 | 0.986 and 0.568 and 1.27 | 1.59 and 2.41 | 1.36 and 1.09 | 0.828 and 2.16 | 1.23 | 1.37 | 1.15 and 0.806 | 1.04 and 1.48 | 0.993 | 0.99 and 0.523 | 1.22 and 1.29
7 | CC(C)CCC(=O)O [4-methylvaleric acid] | 1.35 | 0.665 | 1.37 | 1.69 | 1.31 | 0.431 | 1.1 | 0.863 | 0.86 | 0.996 | 1.46 | 1.86 | 1.87 | 0.851 | 0.989 | 0.819 | 1.72 | 0.159 | 1.03 | 1.16
8 | C=CCc1ccc(OC)c(OC)c1 [eugenol methyl ether] | 1.47 | 1.59 | 1.33 | 1.4 | 1.56 | 1.79 | 1.38 | 1.46 | 1.3 | 1.61 | 1.91 | 1.48 | 1.29 | 0.764 | 1.57 | 1.29 | 1.56 | 0.662 | 1.48 | 1.5
9 | CCCCO [1-butanol] | 1.62 | 0.954 | 1.69 | 2.94 | 0.958 | 1.05 | 1.22 | 0.933 | 0.943 | 1.04 | 2.59 | 3.65 | 3.16 | 0.902 | 1.17 | 1.13 | 2.87 | 1.02 | 1.23 | 1.87
10 | C=CCc1ccc(OC(C)=O)c(OC)c1 [eugenol acetate] | 1.61 | 1.46 | 1.51 | 1.86 | 1.8 | 1.8 | 1.76 | 1.61 | 1.5 | 2.26 | 1.96 | 1.72 | 1.94 | 1.54 | 2.12 | 1.59 | 1.59 | 1.4 | 1.88 | 1.65
11 | CCCCCCCCCC=O [decyl aldehyde] | 1.27 | 1.23 | 0.913 | 1.11 | 1.21 | 1.57 | 1.14 | 1.44 | 1.25 | 1.3 | 1.31 | 1.16 | 1.18 | 1.08 | 1.6 | 1.22 | 1.18 | 0.943 | 1.64 | 1.08
12 | CC(=O)OC1CC2CCC1(C)C2(C)C (stereo not given) [isobornyl acetate] | 0.829 and 0.842 | 1 and 1.06 | 0.626 | 0.507 | 1.15 | 1.03 | 0.706 | 1.15 | 0.829 and 1.05 | 0.943 and 1.3 | 0.687 | 0.689 | 1.56 | 0.847 | 0.872 and 1.15 | 0.856 | 1.64 | 0.175 | 1.05 and 0.721 | 0.717
13 | CC/C=C\CCO [cis-3-hexen-1-ol] | 1.41 | 0.904 | 1.24 | 0.952 | 1.09 | 0.219 | 0.246 | 0.247 | 0.827 | 0.965 | 0.999 | 1.15 | 1.08 | 0.847 | 0.935 | 0.281 | 0.771 | 1.07 | 1.15 | 0.775
14 | C=C(C)C1CC=C(C)C(=O)C1 (stereo not given) [r-carvone] | 0.986 | 0.878 | 0.847 | 1.08 | 1.18 | 1.02 | 1 | 1.14 | 1.1 | 1.11 | 1.29 | 1.04 | 0.599 | 0.899 | 0.993 | 1.17 | 0.933 | 0.884 | 0.875 | 0.923
15 | CC1CCC(C(C)C)C(O)C1 (single isomer, unassigned; (-)) [(-)-menthol] | 4.36 | 1.25 | 2.28 | 3.72 | 1.1 | 0.551 | 0.967 | 0.493 | 2.54 | 1.06 | 2.9 | 2.04 | 2.8 | 0.805 | 2.64 | 0.903 | 4.27 | 1.35 | 0.92 | 2.65
16 | COc1ccccc1O [guaiacol] | 0.708 and 0.974 | 1 and 1.02 | 1.34 | 0.843 | 1.29 | 0.883 | 0.713 | 0.949 | 0.811 and 1.23 | 0.797 and 1.18 | 1.22 | 5.8 | 2.06 | 0.683 | 1.13 and 1.7 | 0.783 | 2.06 | 0.88 | 0.908 and 0.972 | 1.74
17 | CC12CCC(C1)C(C)(C)C2=O (stereo not given) [fenchone] | 0.923 | 1.38 | 0.732 | 0.816 | 1.1 | 1.06 | 0.864 | 0.77 | 1.29 | 1.4 | 0.975 | 1.31 | 1.11 | 0.845 | 1.32 | 0.89 | 1.01 | 0.885 | 1.14 | 0.907
18 | C=CCSCC=C [diallyl sulfide] | 1.18 | 1.19 | 0.727 | 0.896 | 1.24 | 1.13 | 0.926 | 0.967 | 1.22 | 1.26 | 0.991 | 0.996 | 0.951 | 0.907 | 1.43 | 1.05 | 1.06 | 0.856 | 1.12 | 0.901
19 | COc1cc(C)ccc1O [2-methoxy-4-methylphenol] | 0.914 | 0.834 | 1.29 | 1.37 | 0.863 | 1.34 | 1.05 | 4.18 | 0.984 | 0.93 | 1.68 | 1.87 | 1.75 | 0.734 | 1.01 | 0.762 | 1.47 | 0.074 | 1.22 | 1.11
20 | CCCCCCOC(=O)CCC [hexyl butyrate] | 0.772 and 0.741 | 0.975 and 0.826 | 0.951 | 0.848 | 1.28 | 0.949 | 0.756 | 1 | 1.06 and 1.23 | 0.635 and 1.2 | 1.23 | 0.596 | 1.88 | 0.9 | 1.08 and 1.52 | 0.834 | 1.02 | 0.975 | 1.12 and 0.828 | 0.612
21 | CC(C)CC(=O)O [isovaleric acid] | 0.91 | 0.895 | 1.16 | 1.35 | 1.19 | 0.93 | 0.861 | 0.738 | 0.997 | 1.01 | 1.39 | 0.999 | 1.19 | 1.06 | 0.991 | 0.995 | 0.805 | 0.068 | 0.733 | 1.2
22 | CC(=O)OCC=C(C)CCC=C(C)C [geranyl acetate] | 0.981 and 1.25 | 0.94 and 1.21 | 1.38 | 1.31 | 1.78 | 1.34 | 0.873 | 1.38 | 1.03 and 1.67 | 0.976 and 1.96 | 1.38 | 1.07 | 1.22 | 0.825 | 1.14 and 2.46 | 1.11 | 2.63 | 1.72 | 0.851 and 1.04 | 1.13
23 | CC(C)=CCCC(C)=CC=O [citral] | 1.55 | 1.01 | 1.03 | 1.11 | 1.04 | 0.28 | 0.278 | 0.288 | 0.853 | 1.09 | 1.09 | 1.26 | 1.44 | 1.07 | 0.857 | 0.349 | 0.939 | 1.05 | 0.991 | 0.952
24 | CC(C)C(=O)O [isobutyric acid] | 0.904 and 0.83 | 1.15 and 0.812 | 0.864 | 0.922 | 1.27 | 0.934 | 0.57 | 1.05 | 0.954 and 1.05 | 0.82 and 1.07 | 0.841 | 0.772 | 1.22 | 1.04 | 1.06 and 0.968 | 0.768 | 2.01 | 0.064 | 1.04 and 0.66 | 1.06
25 | c1ccc(Oc2ccccc2)cc1 [diphenyl ether] | 1.22 | 1.07 | 0.808 | 0.901 | 1.13 | 1.06 | 0.783 | 0.828 | 1.12 | 1.31 | 0.875 | 1.06 | 1.06 | 0.687 | 1.39 | 0.824 | 1.07 | 0.775 | 0.942 | 0.74
26 | O=CCc1ccccc1 [phenyl acetaldehyde] | 1.12 | 0.886 | 1.18 | 1.14 | 1.08 | 2.01 | 1.5 | 2.11 | 1.19 | 1.56 | 1.48 | 1.45 | 0.812 | 3.06 | 1.25 | 1.64 | 1.33 | 1.44 | 1.17 | 1.16
27 | O=C1CCCCCCCCCCCCCCO1 [pentadecalactone] | 0.805 | 0.73 | 1.01 | 1.16 | 1 | 1.16 | 1.25 | 1.07 | 1.01 | 1.08 | 0.812 | 0.863 | 0.467 | 0.897 | 1.07 | 1.03 | 0.85 | 0.775 | 0.806 | 1.06

Two entries drawn at random from those above:
Row | SMILES | odorant receptor activation [1] | odorant receptor activation [2] | odorant receptor activation [3] | odorant receptor activation [4] | odorant receptor activation [5] | odorant receptor activation [6] | odorant receptor activation [7] | odorant receptor activation [8] | odorant receptor activation [9] | odorant receptor activation [10] | odorant receptor activation [11] | odorant receptor activation [12] | odorant receptor activation [13] | odorant receptor activation [14] | odorant receptor activation [15] | odorant receptor activation [16] | odorant receptor activation [17] | odorant receptor activation [18] | odorant receptor activation [19] | odorant receptor activation [20]
21 | CC(C)CC(=O)O [isovaleric acid] | 0.91 | 0.895 | 1.16 | 1.35 | 1.19 | 0.93 | 0.861 | 0.738 | 0.997 | 1.01 | 1.39 | 0.999 | 1.19 | 1.06 | 0.991 | 0.995 | 0.805 | 0.068 | 0.733 | 1.2
6 | C=C(C)C1CC=CCC1 (stereo not given) [r-limonene] | 1.2 and 1.11 and 0.787 | 0.893 and 0.978 and 0.943 | 1.23 and 2.12 | 1.34 and 1.82 | 1.23 and 0.468 | 1.39 and 0.731 | 1.12 and 1.13 | 1.17 and 0.905 | 0.836 and 0.976 and 1.01 | 0.986 and 0.568 and 1.27 | 1.59 and 2.41 | 1.36 and 1.09 | 0.828 and 2.16 | 1.23 | 1.37 | 1.15 and 0.806 | 1.04 and 1.48 | 0.993 | 0.99 and 0.523 | 1.22 and 1.29

Source: the odorant receptor screen of Mainland et al. (2015)
